In the assay the target is T1, FBXL6 pulled down with an anti-FBXL6 antibody in HCC cells (UniProt Q8N531).
T1 sequence: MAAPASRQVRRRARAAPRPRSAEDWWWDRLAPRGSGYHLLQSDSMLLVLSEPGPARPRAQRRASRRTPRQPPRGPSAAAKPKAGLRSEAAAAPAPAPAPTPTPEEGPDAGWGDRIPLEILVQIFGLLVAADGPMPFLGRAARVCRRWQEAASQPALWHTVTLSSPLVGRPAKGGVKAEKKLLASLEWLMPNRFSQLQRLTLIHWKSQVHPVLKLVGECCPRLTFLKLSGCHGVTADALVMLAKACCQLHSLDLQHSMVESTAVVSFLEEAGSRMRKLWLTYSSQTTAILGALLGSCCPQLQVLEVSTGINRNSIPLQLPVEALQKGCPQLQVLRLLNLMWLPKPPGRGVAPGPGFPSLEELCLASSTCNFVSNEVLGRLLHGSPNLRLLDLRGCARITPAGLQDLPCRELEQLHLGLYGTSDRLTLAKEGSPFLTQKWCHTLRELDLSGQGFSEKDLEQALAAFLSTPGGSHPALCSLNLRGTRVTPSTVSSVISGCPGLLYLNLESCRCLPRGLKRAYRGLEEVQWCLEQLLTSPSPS
Kind of assay: affinity purification with mass spectrometry; pulldown with an anti-FBXL6 antibody in HCC cells; 180 candidate interacting proteins.

Results are given in words; binding and its absence hold for the method and conditions named. Binding seen in cells or lysates may run through a third protein. Here binding means that the protein was enriched with, or labelled near, the bait; the list need not be complete.

B1: TKT (transketolase) found in the anti-FBXL6 pulldown from HCC cells (protein, UniProt P29401 1-623)
chain: MESYHKPDQQKLQALKDTANRLRISSIQATTAAGSGHPTSCCSAAEIMAVLFFHTMRYKSQDPRNPHNDRFVLSKGHAAPILYAVWAEAGFLAEAELLNLRKISSDLDGHPVPKQAFTDVATGSLGQGLGAACGMAYTGKYFDKASYRVYCLLGDGELSEGSVWEAMAFASIYKLDNLVAILDINRLGQSDPAPLQHQMDIYQKRCEAFGWHAIIVDGHSVEELCKAFGQAKHQPTAIIAKTFKGRGITGVEDKESWHGKPLPKNMAEQIIQEIYSQIQSKKKILATPPQEDAPSVDIANIRMPSLPSYKVGDKIATRKAYGQALAKLGHASDRIIALDGDTKNSTFSEIFKKEHPDRFIECYIAEQNMVSIAVGCATRNRTVPFCSTFAAFFTRAFDQIRMAAISESNINLCGSHCGVSIGEDGPSQMALEDLAMFRSVPTSTVFYPSDGVATEKAVELAANTKGICFIRTSRPENAIIYNNNEDFQVGQAKVVLKSKDDQVTVIGAGVTLHEALAAAELLKKEKINIRVLDPFTIKPLDRKLILDSARATKGRILTVEDHYYEGGIGEAVSSAVVGEPGITVTHLAVNRVPRSGKPAELLKMFGIDRDAIAQAVRGLITKA
As to B1, the binding result is listed as “binds”.

These data come from PMC10618235.
